The whole screen tested about 300,000 compounds, of which about 5,400 (1.8%) were called active. Inconclusive results, whose numbers are uncertain, are shown with a selection of clear calls. Calls come from the whole dose curve; tested in HEK293 cells. Potencies of inconclusive entries are doubtful fits and often do not repeat.
Test: qHTS for inhibitors of binding or entry into cells for Marburg Virus
Details: Marburg virus pseudotyped entry inhibition, cell reporter; activity change, negative = inhibition: at 37.8 µM (top of the series) unless noted
In the case of `COc1ccc(/C=N/Nc2nc(N3CCCCC3)nc(N3CCCCC3)n2)cc1[N+](=O)[O-]`, the Potency is reported as inconclusive: 6.31 µM [activator, single point].
With `O=C(CCC(=O)Nc1ccccc1)N/N=C/C=C/c1ccccc1` the Potency was inconclusive: 0.0891 µM [activator, full curve, poor fit].
With `CC(=O)Nc1ccc(S(=O)(=O)N(C2=NCC(C)S2)c2ccccc2)cc1` (configuration not stated) the Potency was active: 15.8 µM.
With `CC1CCN(CCCNC(=O)CCc2nnc3n(CCc4ccccc4)c(=O)c4ccccc4n23)CC1` the Potency was inconclusive: 11.2 µM [inhibitor, partial curve, poor fit].
In the case of `Cc1ccc(OC(=O)c2sc3ncn(C)c(=O)c3c2C)cc1`, the Potency is reported as inconclusive: 11.2 µM [activator, partial curve, poor fit].
With `CCOc1ccccc1N(CC(=O)Nc1ccccc1C(=O)O)S(C)(=O)=O` the Potency was inconclusive: 12.6 µM [activator, single point].
In the case of `CC(C)C(C(=O)O)N1C(=O)/C(=C/C=C/c2ccco2)SC1=S` (configuration not stated), the Potency is reported as inconclusive: 25.1 µM [inhibitor, single point].
For `CC(C)N(CCCNC(=O)c1nn(C)c2c1CS(=O)(=O)c1ccccc1-2)Cc1ccccc1`, the Potency was inconclusive: 35.5 µM [inhibitor, single point].
With `COc1ccc(CCNC(=O)CN(C)S(=O)(=O)c2ccc(Br)s2)cc1OC` the Potency was “inactive”.
For `CC1CCCC(NC(=O)COc2ncnc3ccccc23)C1C` (configuration not stated), the Potency was “inactive”.
In the case of `COC(=O)C1=CO[C@@H](O)[C@@H]2C(CO)=CC[C@H]12`, the Potency is reported as “inactive”.
For `O=C(Cn1cnc2ccccc2c1=O)N1CCc2ccccc2C1`, the Potency was “inactive”.
With `Cc1cc(C)c2oc(C(=O)Nc3ccc(S(=O)(=O)Nc4nccc(C)n4)cc3)cc(=O)c2c1` the activity change, negative = inhibition was inconclusive: 4.33% [activator] [at 46.1 µM].
In the case of `Oc1ccccc1Nc1nc(-c2ccccc2O)nc2ccccc12`, the Potency is reported as inconclusive: 35.5 µM [inhibitor, single point].
In the case of `Cc1ccc(C)c2[nH]c(=O)c(C(c3nnnn3Cc3ccccc3)N3CCc4ccccc4C3)cc12` (configuration not stated), the Potency is reported as inconclusive: 1.3 µM [inhibitor, full curve].
In the case of `CCc1nn(CC(=O)NCCCOC)c(=O)c2cc3ccccc3n12`, the Potency is reported as “inactive”.
For `COc1ccc(C(=O)NCCc2c[nH]c3ccccc23)cc1OC`, the Potency was “inactive”.
In the case of `O=C(CN1CCOc2ccccc21)NCc1cccs1`, the Potency is reported as inconclusive: 20.6 µM [activator, single point].
In the case of `N#Cc1ccc(OCC(O)CN2CCN(c3ncc(C(F)(F)F)cc3Cl)CC2)cc1` (configuration not stated), the Potency is reported as inconclusive: 11.2 µM [inhibitor, partial curve, poor fit].
With `O=C1COc2ccc(C(=O)COC(=O)C3CCN(S(=O)(=O)c4cccs4)CC3)cc2N1` the Potency was inconclusive: 6.51 µM [activator, single point].
For `O=c1c(-c2ccco2)[n+]([O-])c2ccccc2n1OCc1ccccc1[N+](=O)[O-]`, the Potency was “inactive”.
For `CC(=O)[C@H]1CC[C@H]2[C@@H]3CC[C@H]4C[C@](C)(O)CC[C@]4(C)[C@H]3CC[C@]12C`, the Potency was inconclusive: 6.51 µM [inhibitor, single point].
With `COc1ccc(C2(C(=O)Nc3ccc(C)c(C)c3)CCOCC2)cc1` the Potency was inconclusive: 7.94 µM [inhibitor, partial curve, poor fit].
With `Cc1ccc(Oc2nc3ccccc3n3cccc23)cc1` the Potency was “inactive”.
For `CCOc1ccc(S(=O)(=O)Nc2cc(Cl)ccc2OC)c2cccnc12`, the Potency was “inactive”.
For `Cc1ccc(-c2nc3ccccc3c(=O)n2-c2cc(C)ccn2)cc1`, the Potency was “inactive”.
With `Cc1cc(C)n(Cc2ccc(C(=O)N/N=C/c3ccc(-c4ccc([N+](=O)[O-])cc4)o3)o2)n1` the Potency was inconclusive: 10 µM [inhibitor, partial curve].
In the case of `CCCc1nc(SCC(=O)Nc2nc3c(s2)CCCC3)c2ccccc2n1`, the Potency is reported as inconclusive: 10.3 µM [inhibitor, single point].
With `COc1ccc(C(=O)NC2CCCCC2)cc1OC1CCN(C(C)C)CC1` the Potency was inconclusive: 0.1 µM [activator, full curve, poor fit].
In the case of `COc1ccc(-c2noc(CN(C(=O)c3cc(OC)c(OC)cc3OC)C(C)C)n2)cc1`, the Potency is reported as inconclusive: 5.62 µM [activator, single point].
With `O=C(COc1ccc(C(=O)c2ccccc2)cc1)NCc1ccc(F)cc1` the Potency was inconclusive: 20 µM [inhibitor, single point].
With `COCCOc1ccc(C(F)(F)F)cc1NC(=O)COC(=O)c1cc([N+](=O)[O-])ccc1N1CCOCC1` the Potency was active: 12.6 µM.
For `Nc1nonc1-n1nnc(C(=O)N/N=C/c2ccc(Cl)cc2Cl)c1CN1CCOCC1`, the Potency was inconclusive: 0.794 µM [inhibitor, full curve, poor fit].
For `CCOC(=O)c1cc(C(=O)Nc2cccc(C)c2)nn1C`, the Potency was inconclusive: 0.73 µM [activator, partial curve, poor fit].
In the case of `Cc1ccccc1NS(=O)(=O)c1cc(C(=O)NCc2ccco2)ccc1C`, the Potency is reported as “inactive”.
With `COc1cc(N/N=C(\C)c2ccc(O)c(C)c2)nc(-c2ccccc2)n1` the Potency was inconclusive: 3.16 µM [inhibitor, partial curve, poor fit].
With `CCCc1nnc(NC(=O)COc2ccc3c(c2)OCO3)s1` the Potency was inconclusive: 7.08 µM [inhibitor, full curve, poor fit].
For `O=C(N/N=C/c1ccc(N2CCOCC2)cc1)c1ccncc1`, the Potency was inconclusive: 0.316 µM [activator, partial curve, poor fit].
With `COc1cccc(CNC(=O)CCCn2nc(C)c3c(C)n(-c4ccc(C)cc4)nc3c2=O)c1OC` the Potency was “inactive”.
In the case of `Cc1cc(C)c(NC(=O)c2ccc(CNS(=O)(=O)c3cc(C(F)(F)F)ccc3Cl)cc2)c(C)c1`, the Potency is reported as inconclusive: 11.2 µM [inhibitor, single point].
With `Cc1cccc(Nc2nnc(SCC(=O)Nc3cccc(S(=O)(=O)N4CCCCC4)c3)s2)c1` the Potency was inconclusive: 3.26 µM [inhibitor, single point].
With `CCOC(=O)c1c(-c2ccc(-c3ccccc3)cc2)csc1NC(=O)CCN1CCOCC1` the Potency was inconclusive: 31.6 µM [inhibitor, single point].

Source: PubChem BioAssay AID540276 (National Center for Advancing Translational Sciences (NCATS), 2011)
% is set by controls: 0 for no effect and ±100 for the full control effect; potency is the fitted concentration of half-maximal effect.
